Measurements published in PMC6291157.
Results are given in words; binding and its absence hold for the method and conditions named. Binding seen in cells or lysates may run through a third protein. Some entries that bind do so weakly or less than the wild type. For some of these results: Sequences can lack the tags named with a protein. Blank lines part the entries; values can stand above or below the molecule they belong to.

Amino acid sequences for entries named in this document (tags omitted).
UniProt Q13200: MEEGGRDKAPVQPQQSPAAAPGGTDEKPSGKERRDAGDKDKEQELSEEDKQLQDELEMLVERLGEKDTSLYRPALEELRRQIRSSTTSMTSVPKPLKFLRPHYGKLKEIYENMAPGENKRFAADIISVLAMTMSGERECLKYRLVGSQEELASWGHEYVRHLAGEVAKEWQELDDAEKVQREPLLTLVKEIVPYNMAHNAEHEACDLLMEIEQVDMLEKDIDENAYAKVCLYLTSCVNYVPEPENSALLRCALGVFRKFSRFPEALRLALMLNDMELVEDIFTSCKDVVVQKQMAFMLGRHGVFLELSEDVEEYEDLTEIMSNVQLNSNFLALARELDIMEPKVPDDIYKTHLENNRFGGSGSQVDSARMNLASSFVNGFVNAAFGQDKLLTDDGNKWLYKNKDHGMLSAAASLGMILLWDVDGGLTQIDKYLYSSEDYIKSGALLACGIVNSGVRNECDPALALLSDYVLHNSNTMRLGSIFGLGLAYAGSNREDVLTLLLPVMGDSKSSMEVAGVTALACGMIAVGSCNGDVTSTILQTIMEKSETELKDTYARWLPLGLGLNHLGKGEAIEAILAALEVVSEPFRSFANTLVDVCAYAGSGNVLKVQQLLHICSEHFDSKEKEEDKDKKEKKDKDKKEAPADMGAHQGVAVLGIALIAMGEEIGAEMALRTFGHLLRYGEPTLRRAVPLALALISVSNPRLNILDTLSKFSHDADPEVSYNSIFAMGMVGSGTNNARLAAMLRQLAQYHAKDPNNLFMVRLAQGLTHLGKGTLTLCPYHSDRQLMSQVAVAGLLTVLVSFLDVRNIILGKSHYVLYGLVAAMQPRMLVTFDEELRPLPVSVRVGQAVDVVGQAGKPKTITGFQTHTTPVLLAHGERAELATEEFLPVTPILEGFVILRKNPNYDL
UniProt Q8N371: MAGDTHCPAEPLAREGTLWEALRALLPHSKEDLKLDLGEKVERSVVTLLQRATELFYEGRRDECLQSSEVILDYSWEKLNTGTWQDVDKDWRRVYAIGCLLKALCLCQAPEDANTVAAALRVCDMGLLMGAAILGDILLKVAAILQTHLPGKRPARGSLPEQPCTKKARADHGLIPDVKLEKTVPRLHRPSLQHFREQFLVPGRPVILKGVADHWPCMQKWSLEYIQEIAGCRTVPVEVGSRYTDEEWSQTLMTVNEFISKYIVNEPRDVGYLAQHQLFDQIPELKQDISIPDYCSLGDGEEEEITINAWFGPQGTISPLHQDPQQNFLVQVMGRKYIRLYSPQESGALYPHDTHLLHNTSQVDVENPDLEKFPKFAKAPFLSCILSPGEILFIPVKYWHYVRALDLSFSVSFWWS

Legend:
[1] = target: T1, FLAG-CRY2 (CRYPTOCHROME 2) (UniProt Q9R194); assay: co-IP; HEK293T cotransfected (1.5 ug V5-FBXL3, 400 ng FLAG-CRY1, 600 ng HA-JMJD5); lysis in 200 mM NaCl, 50 mM Tris-HCl, 1% TX-100, 1% NP-40; FLAG-tagged CRY precipitated on M2 FLAG magnetic beads overnight at 4 °C, eluted with 3X FLAG peptide, immunoblot; with or without coexpressed FBXL3; also with shRNA against FBXL3 or siRNA against JMJD5
T1 sequence: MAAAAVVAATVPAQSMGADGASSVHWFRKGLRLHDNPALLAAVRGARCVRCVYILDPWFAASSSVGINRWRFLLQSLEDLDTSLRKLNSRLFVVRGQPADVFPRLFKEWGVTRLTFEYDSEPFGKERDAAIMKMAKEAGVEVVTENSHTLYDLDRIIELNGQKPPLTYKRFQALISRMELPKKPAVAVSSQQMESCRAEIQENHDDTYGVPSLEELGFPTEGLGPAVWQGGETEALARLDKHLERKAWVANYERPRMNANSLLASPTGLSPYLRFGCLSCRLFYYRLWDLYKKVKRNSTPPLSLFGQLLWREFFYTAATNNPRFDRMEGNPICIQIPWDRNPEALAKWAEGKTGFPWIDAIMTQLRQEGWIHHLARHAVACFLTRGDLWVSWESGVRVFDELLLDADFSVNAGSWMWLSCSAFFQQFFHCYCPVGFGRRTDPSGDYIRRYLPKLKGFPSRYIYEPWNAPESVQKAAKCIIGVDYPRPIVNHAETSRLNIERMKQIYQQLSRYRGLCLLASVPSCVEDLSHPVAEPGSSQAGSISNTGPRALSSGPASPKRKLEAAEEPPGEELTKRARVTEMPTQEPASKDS

[2] = target: T2, V5-FBXL3 (F-box/leucine-rich repeat protein 3) (UniProt Q9UKT7); assay: co-IP; HEK293T cotransfected with FLAG-CRY1, HA-JMJD5, V5-FBXL3 and shRNA against CRY1; which protein was precipitated is not told
T2 sequence: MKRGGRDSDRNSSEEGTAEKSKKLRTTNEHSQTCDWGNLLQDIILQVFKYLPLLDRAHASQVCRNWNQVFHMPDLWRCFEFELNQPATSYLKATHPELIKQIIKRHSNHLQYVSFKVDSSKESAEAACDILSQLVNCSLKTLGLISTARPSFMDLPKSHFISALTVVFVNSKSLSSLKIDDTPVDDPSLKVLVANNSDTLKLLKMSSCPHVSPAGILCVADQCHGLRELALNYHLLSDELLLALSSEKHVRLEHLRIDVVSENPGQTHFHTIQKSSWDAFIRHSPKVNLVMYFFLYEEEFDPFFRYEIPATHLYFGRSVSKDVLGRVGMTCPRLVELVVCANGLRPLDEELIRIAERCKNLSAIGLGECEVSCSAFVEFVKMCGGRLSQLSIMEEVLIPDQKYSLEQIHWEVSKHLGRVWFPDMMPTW

[3] = target: T3, FLAG-CRY1 (CRYPTOCHROME 1, wild type) (UniProt P97784); assay: co-IP; HEK293T cotransfected (1.5 ug V5-FBXL3, 400 ng FLAG-CRY1, 600 ng HA-JMJD5); lysis in 200 mM NaCl, 50 mM Tris-HCl, 1% TX-100, 1% NP-40; FLAG-tagged CRY precipitated on M2 FLAG magnetic beads overnight at 4 °C, eluted with 3X FLAG peptide, immunoblot; with or without coexpressed FBXL3; also with shRNA against FBXL3 or siRNA against JMJD5
T3 sequence: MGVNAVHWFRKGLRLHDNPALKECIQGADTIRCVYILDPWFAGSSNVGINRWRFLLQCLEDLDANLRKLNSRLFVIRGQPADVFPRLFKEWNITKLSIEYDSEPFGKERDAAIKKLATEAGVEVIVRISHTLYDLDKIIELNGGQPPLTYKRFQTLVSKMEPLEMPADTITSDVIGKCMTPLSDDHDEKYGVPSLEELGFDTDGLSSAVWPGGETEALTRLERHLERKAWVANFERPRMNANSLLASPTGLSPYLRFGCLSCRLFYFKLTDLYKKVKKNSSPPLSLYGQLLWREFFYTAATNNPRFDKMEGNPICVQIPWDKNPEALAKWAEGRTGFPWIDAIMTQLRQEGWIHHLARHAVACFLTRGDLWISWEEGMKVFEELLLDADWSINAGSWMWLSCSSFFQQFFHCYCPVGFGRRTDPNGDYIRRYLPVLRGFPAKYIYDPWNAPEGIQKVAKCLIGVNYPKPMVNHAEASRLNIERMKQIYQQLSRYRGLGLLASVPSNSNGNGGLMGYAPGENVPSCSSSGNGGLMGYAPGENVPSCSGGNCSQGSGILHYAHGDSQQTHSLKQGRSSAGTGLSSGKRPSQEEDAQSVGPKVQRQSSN

[4] = target: HA-RPN1 (19S proteasome regulatory particle non-ATPase 1) (UniProt Q13200); assay: co-IP; Jmjd5+/+ and Jmjd5-/- MEFs transfected with HA-RPN1; lysis in 400 mM NaCl, 50 mM Tris-HCl, 1% TX-100, 0.25% sodium deoxycholate; anti-HA antibody on protein G beads, 1 hour at 4 °C; blot for endogenous CRY1

- binding [1]: no binding
- binding [2]: binds
Molecule: HA-JMJD5 (JmjC domain-containing protein 5) (from UniProt Q8N371 1-416)

- binding [3]: binds
B1: V5-FBXL3 (F-box/leucine-rich repeat protein 3) (protein, UniProt Q9UKT7 1-428)
chain: MKRGGRDSDRNSSEEGTAEKSKKLRTTNEHSQTCDWGNLLQDIILQVFKYLPLLDRAHASQVCRNWNQVFHMPDLWRCFEFELNQPATSYLKATHPELIKQIIKRHSNHLQYVSFKVDSSKESAEAACDILSQLVNCSLKTLGLISTARPSFMDLPKSHFISALTVVFVNSKSLSSLKIDDTPVDDPSLKVLVANNSDTLKLLKMSSCPHVSPAGILCVADQCHGLRELALNYHLLSDELLLALSSEKHVRLEHLRIDVVSENPGQTHFHTIQKSSWDAFIRHSPKVNLVMYFFLYEEEFDPFFRYEIPATHLYFGRSVSKDVLGRVGMTCPRLVELVVCANGLRPLDEELIRIAERCKNLSAIGLGECEVSCSAFVEFVKMCGGRLSQLSIMEEVLIPDQKYSLEQIHWEVSKHLGRVWFPDMMPTW

- binding [4]: binds
B2: endogenous CRY1 (CRYPTOCHROME 1) of mouse embryo fibroblasts (protein, UniProt P97784 1-606)
chain: MGVNAVHWFRKGLRLHDNPALKECIQGADTIRCVYILDPWFAGSSNVGINRWRFLLQCLEDLDANLRKLNSRLFVIRGQPADVFPRLFKEWNITKLSIEYDSEPFGKERDAAIKKLATEAGVEVIVRISHTLYDLDKIIELNGGQPPLTYKRFQTLVSKMEPLEMPADTITSDVIGKCMTPLSDDHDEKYGVPSLEELGFDTDGLSSAVWPGGETEALTRLERHLERKAWVANFERPRMNANSLLASPTGLSPYLRFGCLSCRLFYFKLTDLYKKVKKNSSPPLSLYGQLLWREFFYTAATNNPRFDKMEGNPICVQIPWDKNPEALAKWAEGRTGFPWIDAIMTQLRQEGWIHHLARHAVACFLTRGDLWISWEEGMKVFEELLLDADWSINAGSWMWLSCSSFFQQFFHCYCPVGFGRRTDPNGDYIRRYLPVLRGFPAKYIYDPWNAPEGIQKVAKCLIGVNYPKPMVNHAEASRLNIERMKQIYQQLSRYRGLGLLASVPSNSNGNGGLMGYAPGENVPSCSSSGNGGLMGYAPGENVPSCSGGNCSQGSGILHYAHGDSQQTHSLKQGRSSAGTGLSSGKRPSQEEDAQSVGPKVQRQSSN
